Test results published in patent CN114651011A.
These are yes or no findings as the source states them, for the method shown. Some results given as binding are weak or reduced against the parent protein; the word gives no strength.

Tests used:
[1] = target: T1, linear 15-mer peptides of human CD43 with the consensus motif INEGSPLW (aa 71-78 of human CD43) (human); assay: CD43 peptide microarray (15-mers), antibody at 10 and 100 μg/ml
T1 sequence (peptide): INEGSPLW

[2] = target: T2, linear 15-mer peptides of human CD43 with the highly basic consensus of SEQ ID NO: 50 (human); assay: CD43 peptide microarray (15-mers), antibody at 10 and 100 μg/ml; called non-specific ionic binding by the filing
T2 sequence (peptide): RRPTLTTFFGRRK

[3] = target: T3, linear 15-mer peptides of human CD43 with the highly basic consensus RRRQKR (human); assay: as above
T3 sequence (peptide): RRRQKR

- binding [1]: binds
- binding [2]: binds
- binding [3]: binds
B1: h-UMG1 (人源化UMG1单克隆抗体, H3-L4) (antibody, human IgG1, kappa, V domains shown)
VH: EVQLVESGGGLVQPGGSLRLSCVASGFTFSSFGMHWVRQAPGKGLEWVAYISSGSGNFYYVDTVKGRFTISRDNAKNSLYLQMNSLRAEDTAVYYCARSTYYHGSRGAMDYWGQGTLVTVSS
VL: QVVMTQSPAFLSVTPGEKVTITCSASSSVSSMYWYQLKPDQAPKLLIYDTSKMASGVPIRFSGSGSGTDFTFTVSSVEAEDAATYYCQQWSSYPPITFGGGTKVEIKR
